Test system: Male Sprague-Dawley rats
Conditions: administered s.c. immediately after the sampling phase; tested after a three-hour delay

CN1[C@@H]2C[C@@H](OC(=O)[C@H](CO)c3ccccc3)C[C@H]1[C@@H]1O[C@@H]12 [Scopolamine, scopolamine]
retention (errors in the retention session): disrupted retention after a three-hour delay in a dose-related fashion
